Laboratory results published in patent publication US20230012791A1, “Modified Plants” (Oxford University Innovation Limited, priority 2019, published 2023).
At least one compound was matched to its structure with a doubt left.

Test system: wild type Kitaake
Assay: Exogenous auxin treatment of wild type seedlings
Format: in vivo, Kitaake rice (O. sativa ssp. japonica)
Settings: 0.1 μM NAA in ½ MS medium

## O=C(O)Cc1cccc2ccccc12 [NAA, naphthaleneacetic acid]
  effect on vascular tissue and bulliform cells in leaf 3 (transverse sections): not in wild type
